Results: patent US7632843B2, “Treatment of psychostimulant addiction” (priority 2002, dated 2009)
For at least one compound, name, drawing or mass did not settle the structure.

System: male Wistar rats
Test: Craving model: within session extinction and reinstatement paradigm in rats self-administering cocaine
Format: in vivo, Rattus norvegicus
Details: bromocriptine 2 mg/kg i.v., 60 minutes before cocaine 2 mg/kg i.v.
Experimental: The study was performed in male Wistar rats (Rattus norvegicus) (the number is given above the columns in the figures) each weighing 180 to 210 g at the beginning of the experiment. The animals used in this experiment were maintained on a 12-hour dark-light cycle under controlled conditions at temperature 22 to 24° C., individually housed in standard cages with free excess to food and water.
In the tests the following active substances were used: • Cocaine hydrochloride • Bromocriptine mesylate • LEK-8829 (9,10-didehydro-N-methyl-N-(2-propynyl)-6-methyl-8β-aminometylergoline bimaleate) Operant Cage for Self-Injecting
The rats were trained and tested in standard operant test chambers (Coulbourn Instruments, Allentown, Pa., USA). Test chambers were built in a modular form and placed in sound-attenuated cubicles. Each was equipped with a ventilating fan that also served as sound source to mask external sound. Chambers were equipped with bulbs emitting white lights. […]
The rats were trained in self-injection of cocaine in daily, 2-hour self-administration sessions during their light cycle, every day except on Saturdays and Sundays. […] Each activation of the active opening was followed by a 30-second period of inactivation (time-out period when the light in the cage was switched off and activation of the active opening was only recorded but without any consequences). […]

CC(C)C[C@H]1C(=O)N2CCC[C@H]2[C@]2(O)O[C@](NC(=O)[C@@H]3C=C4c5cccc6[nH]c(Br)c(c56)C[C@H]4N(C)C3)(C(C)C)C(=O)N12 [Bromocriptine, reference compound]
effect on cocaine-induced self-injecting (activations of the active opening, last half-hour): did not prevent cocaine-induced self-injecting
